{"source": "the supplement of paper PMC8728848", "assay_in_all_cases": "glycan array binding signal (z-score within array); higher = stronger binding", "details_in_all_cases": "glycan notation: IUPAC condensed, linker removed", "key": {"Gal(b1-4)Glc": {"target": "Gal(b1-4)Glc", "method_in_brief": "(§1)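 Arrays were curated from the Consortium for Functional Glycomics database, 3228 in total, and kept only where the protein sequence was available. Binding is expressed as a within-array Z-score. This score was averaged across arrays of the same protein sequence at different concentrations or buffers and across linkers, and negative values can be read as non-binding.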"}, "Gal(b1-4)Glc6S": {"target": "Gal(b1-4)Glc6S", "method_in_brief": "as §1"}, "Gal(b1-4)GlcNAc": {"target": "Gal(b1-4)GlcNAc", "method_in_brief": "as §1"}, "[1]": {"target": "Gal(b1-4)GlcNAc(a1-6)Gal(b1-4)GlcNAc", "method_in_brief": "as §1"}, "Gal(b1-4)GlcNAc(b1-2)Man": {"target": "Gal(b1-4)GlcNAc(b1-2)Man", "method_in_brief": "as §1"}, "[2]": {"target": "Gal(b1-4)GlcNAc(b1-2)Man(a1-3)Man(b1-4)GlcNAc(b1-4)GlcNAc", "method_in_brief": "as §1"}, "[3]": {"target": "Gal(b1-4)GlcNAc(b1-2)Man(a1-3)[Gal(b1-4)GlcNAc(b1-2)Man(a1-6)]Man(b1-4)GlcNAc(b1-4)GlcNAc", "method_in_brief": "as §1"}, "[4]": {"target": "Gal(b1-4)GlcNAc(b1-2)Man(a1-3)[Gal(b1-4)GlcNAc(b1-2)Man(a1-6)]Man(b1-4)GlcNAc(b1-4)[Fuc(a1-6)]GlcNAc", "method_in_brief": "as §1"}, "[5]": {"target": "Gal(b1-4)GlcNAc(b1-2)Man(a1-3)[Gal(b1-4)GlcNAc(b1-2)Man(a1-6)][Gal(b1-4)GlcNAc(b1-4)]Man(b1-4)GlcNAc(b1-4)[Fuc(a1-6)]GlcNAc", "method_in_brief": "as §1"}, "[6]": {"target": "Gal(b1-4)GlcNAc(b1-2)Man(a1-3)[Gal(b1-4)GlcNAc(b1-2)Man(a1-6)][GlcNAc(b1-4)]Man(b1-4)GlcNAc(b1-4)[Fuc(a1-6)]GlcNAc", "method_in_brief": "as §1"}, "[7]": {"target": "Gal(b1-4)GlcNAc(b1-2)Man(a1-3)[GlcNAc(b1-2)Man(a1-6)]Man(b1-4)GlcNAc(b1-4)GlcNAc", "method_in_brief": "as §1"}, "[8]": {"target": "Gal(b1-4)GlcNAc(b1-2)Man(a1-3)[GlcNAc(b1-4)][Gal(b1-4)GlcNAc(b1-2)Man(a1-6)]Man(b1-4)GlcNAc(b1-4)GlcNAc", "method_in_brief": "as §1"}, "[9]": {"target": "Gal(b1-4)GlcNAc(b1-2)Man(a1-3)[Man(a1-6)]Man(b1-4)GlcNAc(b1-4)GlcNAc", "method_in_brief": "as §1"}, "[10]": {"target": "Gal(b1-4)GlcNAc(b1-2)Man(a1-6)Man(b1-4)GlcNAc(b1-4)GlcNAc", "method_in_brief": "as §1"}, "[11]": {"target": "Gal(b1-4)GlcNAc(b1-2)Man(a1-6)[GlcNAc(b1-2)Man(a1-3)]Man(b1-4)GlcNAc(b1-4)GlcNAc", "method_in_brief": "as §1"}, "[12]": {"target": "Gal(b1-4)GlcNAc(b1-2)Man(a1-6)[Man(a1-3)]Man(b1-4)GlcNAc(b1-4)GlcNAc", "method_in_brief": "as §1"}, "[13]": {"target": "Gal(b1-4)GlcNAc(b1-2)[Gal(b1-4)GlcNAc(b1-4)]Man(a1-3)[Gal(b1-4)GlcNAc(b1-2)Man(a1-6)]Man(b1-4)GlcNAc(b1-4)GlcNAc", "method_in_brief": "as §1"}, "[14]": {"target": "Gal(b1-4)GlcNAc(b1-2)[Gal(b1-4)GlcNAc(b1-4)]Man(a1-3)[Gal(b1-4)GlcNAc(b1-2)[Gal(b1-4)GlcNAc(b1-6)]Man(a1-6)]Man(b1-4)GlcNAc(b1-4)GlcNAc", "method_in_brief": "as §1"}, "[15]": {"target": "Gal(b1-4)GlcNAc(b1-2)[Gal(b1-4)GlcNAc(b1-4)]Man(a1-3)[GlcNAc(b1-4)][Gal(b1-4)GlcNAc(b1-2)Man(a1-6)]Man(b1-4)GlcNAc(b1-4)GlcNAc", "method_in_brief": "as §1"}, "[16]": {"target": "Gal(b1-4)GlcNAc(b1-2)[Gal(b1-4)GlcNAc(b1-4)]Man(a1-3)[GlcNAc(b1-4)][Gal(b1-4)GlcNAc(b1-2)[Gal(b1-4)GlcNAc(b1-6)]Man(a1-6)]Man(b1-4)GlcNAc(b1-4)GlcNAc", "method_in_brief": "as §1"}, "[17]": {"target": "Gal(b1-4)GlcNAc(b1-2)[Gal(b1-4)GlcNAc(b1-6)]Man(a1-6)[Gal(b1-4)GlcNAc(b1-2)Man(a1-3)]Man(b1-4)GlcNAc(b1-4)GlcNAc", "method_in_brief": "as §1"}, "[18]": {"target": "Gal(b1-4)GlcNAc(b1-2)[Gal(b1-4)GlcNAc(b1-6)]Man(a1-6)[Gal(b1-4)GlcNAc(b1-2)Man(a1-3)]Man(b1-4)GlcNAc(b1-4)[Fuc(a1-6)]GlcNAc", "method_in_brief": "as §1"}, "[19]": {"target": "Gal(b1-4)GlcNAc(b1-2)[Gal(b1-4)GlcNAc(b1-6)]Man(a1-6)[GlcNAc(b1-4)][Gal(b1-4)GlcNAc(b1-2)Man(a1-3)]Man(b1-4)GlcNAc(b1-4)GlcNAc", "method_in_brief": "as §1"}, "[20]": {"target": "Gal(b1-4)GlcNAc(b1-2)[Gal(b1-4)GlcNAc(b1-6)]Man(a1-6)[GlcNAc(b1-4)][Gal(b1-4)GlcNAc(b1-2)[Gal(b1-4)GlcNAc(b1-4)]Man(a1-3)]Man(b1-4)GlcNAc(b1-4)[Fuc(a1-6)]GlcNAc", "method_in_brief": "as §1"}, "[21]": {"target": "Gal(b1-4)GlcNAc(b1-3)Gal(b1-3)GalNAc", "method_in_brief": "as §1"}, "[22]": {"target": "Gal(b1-4)GlcNAc(b1-3)Gal(b1-3)GlcNAc", "method_in_brief": "as §1"}, "[23]": {"target": "Gal(b1-4)GlcNAc(b1-3)Gal(b1-4)Glc", "method_in_brief": "as §1"}, "[24]": {"target": "Gal(b1-4)GlcNAc(b1-3)Gal(b1-4)GlcNAc", "method_in_brief": "as §1"}, "[25]": {"target": "Gal(b1-4)GlcNAc(b1-3)Gal(b1-4)GlcNAc(b1-2)Man(a1-3)[Gal(b1-4)GlcNAc(b1-3)Gal(b1-4)GlcNAc(b1-2)Man(a1-6)]Man(b1-4)GlcNAc(b1-4)GlcNAc", "method_in_brief": "as §1"}, "[26]": {"target": "Gal(b1-4)GlcNAc(b1-3)Gal(b1-4)GlcNAc(b1-2)Man(a1-3)[Gal(b1-4)GlcNAc(b1-3)Gal(b1-4)GlcNAc(b1-2)Man(a1-6)]Man(b1-4)GlcNAc(b1-4)[Fuc(a1-6)]GlcNAc", "method_in_brief": "as §1"}}, "note": "The other results are listed elsewhere or left out.", "data": [{"binder": "Awp3 (Candida glabrata), B4UN32 (protein) MISFVTLLAILGLLSISWADQTVRSVAGDQRVTDPVIVGDNSILDYYGGSNYDFSNNFEIGRGTLYIGKESYFSSFQSAPTDVPNSFHLLIKNTNNLQNNGQFIIENIKRHANQCSNSSIQVFPINFQNDGEFEIISGGVEGRCCLPTSVIAPQNFLNNGKFYYKVLTDTGSIYSGSCMQNVDIGASTTTTVNNNLWEFTGSINAQINGAVSGAAQINLDGSNMFVNANTFSGQVVNLINGGSFLQTSDPLSNIVVINGLGTSDTGVTSIAVKGKGKSFTYNPSSGIVKLTTVEGKTYAYQIGCGYNTKKFITNNDSGASYESADNFFVLTYSEPYSPQTCQLENSSIFSSNFISTSTSSSSSSSSASSLPSSMSSSLPSSLSSSLSSSLSSSMSSSMSSLFIIPPPYTTTRSSGSSIIDTEIVSFYSTTDSPGHTITGTTTTTLYGPHTHSSVSTPSSSSESSTTSNSSIESSSLPHTSVSSTPESSITPSSNTISSSPTSDFSSVQSSSIMESSSVVASSSVINSSSIVDSSSSSASSLPSSMSSSLSSSMSSSLPSSMSSSLSSSLSSSLSSSMSSSMSSLFIIPPPYTTTRSSGSSIIDTEIVSFYSTTDSPGHTITGTTTTTLYGPHTHSSVSTPSSSSESSTTSNSSIESSSLPHTSVSSTPESSITPSSNTISSSPTSDFSSVQSSSIMESSSVVASSSVINSSSIVDSSSSSASSLPSSMPSSLPSSMSSSLSSSMSSSLSSSLSSSLSSSMSSSMSSLFIIPPPYTTTRSSGSSIIDTEIVSFYSTTDSPGHTITGTTTTTLYGPHTHSSVSTPSSSSESSTTSNSSIESSSLPHTSVSSTPESSITPSSNTISSSPTSDFSSVQSSSIMESSSVVASSSATQSSSVINSSSIVDSSSSSASSLPSSMPSSLPSSLSSSLSSSLSSSMSSSMSSLFIIPPPYTTTRSSGSSIIDTEIVSFYSTTDSPGHTITGTTTTTLYESSIYSSSSSTIQESELSNTSRTTMTSNSSVSISSTSSRSSFSNTKSSTIVISQSASLPDSKTDIILSTSSNIGYSSRSLLSDLGTSISDSDIHHSVLHSTESYSSNESGTNPFTSIASLSNFIPESSSHTSTALGSENSVISSDILTTMSHPVATNSGDKPTTPKRSEQVSTTMTSSGPTPDTSSFDTDGMSAYSRPEFTTNSLEVNKSSTSQLGNNKQTFSNLQLESTRPHSENEVDNNTRLLQSIQQSSTYGTNNVNPLSPTGSISIPLTEDGQGDNNNWNSPATNDLCTQISFNLTATTITVTDRITITDSIHDISSEVITSYIYQTIVDQKTVTQTVDGKSLANKMSSIPKPSSRSLIQPQPPVAIELQEGAASTSRVSLVSLFISIILVLL", "values": [{"measurement": "glycan array binding signal (z-score)", "setting": "Gal(b1-4)Glc", "value": 0.406}, {"measurement": "glycan array binding signal (z-score)", "setting": "Gal(b1-4)Glc6S", "value": -0.023}, {"measurement": "glycan array binding signal (z-score)", "setting": "Gal(b1-4)GlcNAc", "value": 0.048}, {"measurement": "glycan array binding signal (z-score)", "setting": "[1]", "value": -0.116}, {"measurement": "glycan array binding signal (z-score)", "setting": "Gal(b1-4)GlcNAc(b1-2)Man", "value": -1.35}, {"measurement": "glycan array binding signal (z-score)", "setting": "[2]", "value": -1.86}, {"measurement": "glycan array binding signal (z-score)", "setting": "[3]", "value": -0.701}, {"measurement": "glycan array binding signal (z-score)", "setting": "[4]", "value": 1.08}, {"measurement": "glycan array binding signal (z-score)", "setting": "[5]", "value": -0.746}, {"measurement": "glycan array binding signal (z-score)", "setting": "[6]", "value": 1.4}, {"measurement": "glycan array binding signal (z-score)", "setting": "[7]", "value": -1.06}, {"measurement": "glycan array binding signal (z-score)", "setting": "[8]", "value": -0.899}, {"measurement": "glycan array binding signal (z-score)", "setting": "[9]", "value": -0.338}, {"measurement": "glycan array binding signal (z-score)", "setting": "[10]", "value": -0.42}, {"measurement": "glycan array binding signal (z-score)", "setting": "[11]", "value": 0.07}, {"measurement": "glycan array binding signal (z-score)", "setting": "[12]", "value": 0.258}, {"measurement": "glycan array binding signal (z-score)", "setting": "[13]", "value": -0.788}, {"measurement": "glycan array binding signal (z-score)", "setting": "[14]", "value": -0.258}, {"measurement": "glycan array binding signal (z-score)", "setting": "[15]", "value": -0.635}, {"measurement": "glycan array binding signal (z-score)", "setting": "[16]", "value": -1.71}, {"measurement": "glycan array binding signal (z-score)", "setting": "[17]", "value": 0.708}, {"measurement": "glycan array binding signal (z-score)", "setting": "[18]", "value": 1.49}, {"measurement": "glycan array binding signal (z-score)", "setting": "[19]", "value": 0.134}, {"measurement": "glycan array binding signal (z-score)", "setting": "[20]", "value": 0.333}, {"measurement": "glycan array binding signal (z-score)", "setting": "[21]", "value": -0.84}, {"measurement": "glycan array binding signal (z-score)", "setting": "[22]", "value": 1.74}, {"measurement": "glycan array binding signal (z-score)", "setting": "[23]", "value": 0.234}, {"measurement": "glycan array binding signal (z-score)", "setting": "[24]", "value": -1.02}, {"measurement": "glycan array binding signal (z-score)", "setting": "[25]", "value": 1.18}, {"measurement": "glycan array binding signal (z-score)", "setting": "[26]", "value": 0.352}]}]}
